Laboratory results: patent US20140157444A1
Results are given in words; binding and its absence hold for the method and conditions named. Binding seen in cells or lysates may run through a third protein. Some entries that bind do so weakly or less than the wild type. For part of these data: Sequences can lack the tags named with a protein.

Protein sequences, listed by entry. Tags and fused reporters are not part of them.
UniProt O15379: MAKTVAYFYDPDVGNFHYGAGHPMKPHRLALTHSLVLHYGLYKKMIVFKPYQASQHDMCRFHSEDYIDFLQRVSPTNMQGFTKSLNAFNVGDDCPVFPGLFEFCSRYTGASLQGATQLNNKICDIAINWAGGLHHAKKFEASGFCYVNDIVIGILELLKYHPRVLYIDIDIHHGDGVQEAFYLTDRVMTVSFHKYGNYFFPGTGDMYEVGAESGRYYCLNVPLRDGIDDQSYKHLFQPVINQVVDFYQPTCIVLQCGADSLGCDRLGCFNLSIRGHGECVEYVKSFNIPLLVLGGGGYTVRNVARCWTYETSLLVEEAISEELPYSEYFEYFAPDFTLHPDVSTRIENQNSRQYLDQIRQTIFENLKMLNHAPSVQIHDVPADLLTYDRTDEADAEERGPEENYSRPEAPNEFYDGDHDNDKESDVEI
UniProt Q8C2B3: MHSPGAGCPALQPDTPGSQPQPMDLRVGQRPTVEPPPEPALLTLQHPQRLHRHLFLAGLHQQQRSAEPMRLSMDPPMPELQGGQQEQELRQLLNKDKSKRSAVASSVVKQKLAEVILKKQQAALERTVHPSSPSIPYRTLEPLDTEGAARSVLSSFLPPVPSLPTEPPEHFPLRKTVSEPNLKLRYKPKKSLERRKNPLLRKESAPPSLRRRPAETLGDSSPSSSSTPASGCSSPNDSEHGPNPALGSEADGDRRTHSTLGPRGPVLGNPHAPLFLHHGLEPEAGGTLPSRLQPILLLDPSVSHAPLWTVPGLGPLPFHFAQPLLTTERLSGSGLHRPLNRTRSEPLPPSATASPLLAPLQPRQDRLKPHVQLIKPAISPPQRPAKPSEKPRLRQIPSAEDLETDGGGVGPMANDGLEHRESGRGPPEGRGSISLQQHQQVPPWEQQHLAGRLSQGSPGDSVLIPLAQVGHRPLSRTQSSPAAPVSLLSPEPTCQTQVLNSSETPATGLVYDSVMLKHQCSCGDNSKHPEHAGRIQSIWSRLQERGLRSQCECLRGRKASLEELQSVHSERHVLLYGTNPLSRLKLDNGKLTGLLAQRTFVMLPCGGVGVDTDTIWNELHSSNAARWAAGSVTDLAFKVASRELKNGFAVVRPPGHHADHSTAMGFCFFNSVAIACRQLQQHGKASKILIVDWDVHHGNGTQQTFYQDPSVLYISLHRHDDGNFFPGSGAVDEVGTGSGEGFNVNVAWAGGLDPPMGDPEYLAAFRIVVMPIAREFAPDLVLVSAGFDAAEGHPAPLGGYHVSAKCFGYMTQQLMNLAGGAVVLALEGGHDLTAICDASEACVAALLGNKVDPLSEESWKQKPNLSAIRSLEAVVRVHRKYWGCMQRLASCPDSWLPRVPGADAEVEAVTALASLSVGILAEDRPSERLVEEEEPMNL
UniProt Q13547: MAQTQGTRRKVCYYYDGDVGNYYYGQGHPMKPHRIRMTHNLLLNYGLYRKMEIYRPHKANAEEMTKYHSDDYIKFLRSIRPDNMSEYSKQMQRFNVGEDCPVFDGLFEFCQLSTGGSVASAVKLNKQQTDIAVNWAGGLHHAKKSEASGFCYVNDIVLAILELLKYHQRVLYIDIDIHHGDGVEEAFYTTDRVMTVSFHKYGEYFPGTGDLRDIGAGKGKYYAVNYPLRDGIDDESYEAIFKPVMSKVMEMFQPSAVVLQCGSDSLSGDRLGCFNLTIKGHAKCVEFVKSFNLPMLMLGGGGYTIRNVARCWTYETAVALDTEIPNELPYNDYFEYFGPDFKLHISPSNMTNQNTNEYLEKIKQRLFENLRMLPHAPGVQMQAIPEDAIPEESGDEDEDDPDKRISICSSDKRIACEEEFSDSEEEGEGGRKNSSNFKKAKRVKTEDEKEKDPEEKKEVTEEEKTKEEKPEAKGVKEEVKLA
UniProt O08537: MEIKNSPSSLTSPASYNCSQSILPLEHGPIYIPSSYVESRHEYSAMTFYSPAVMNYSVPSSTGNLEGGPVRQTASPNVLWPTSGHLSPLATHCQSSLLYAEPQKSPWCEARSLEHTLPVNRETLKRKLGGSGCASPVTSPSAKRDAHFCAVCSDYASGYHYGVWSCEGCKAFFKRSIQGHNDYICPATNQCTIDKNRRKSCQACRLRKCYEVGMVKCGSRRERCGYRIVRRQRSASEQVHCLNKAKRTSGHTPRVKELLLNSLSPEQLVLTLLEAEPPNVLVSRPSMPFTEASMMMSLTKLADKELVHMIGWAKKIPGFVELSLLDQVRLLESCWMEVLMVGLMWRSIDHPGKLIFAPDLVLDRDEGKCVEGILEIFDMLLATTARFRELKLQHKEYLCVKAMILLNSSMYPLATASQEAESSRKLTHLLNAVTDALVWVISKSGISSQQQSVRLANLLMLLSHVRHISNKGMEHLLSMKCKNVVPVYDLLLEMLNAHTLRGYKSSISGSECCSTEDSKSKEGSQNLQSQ
UniProt P03372: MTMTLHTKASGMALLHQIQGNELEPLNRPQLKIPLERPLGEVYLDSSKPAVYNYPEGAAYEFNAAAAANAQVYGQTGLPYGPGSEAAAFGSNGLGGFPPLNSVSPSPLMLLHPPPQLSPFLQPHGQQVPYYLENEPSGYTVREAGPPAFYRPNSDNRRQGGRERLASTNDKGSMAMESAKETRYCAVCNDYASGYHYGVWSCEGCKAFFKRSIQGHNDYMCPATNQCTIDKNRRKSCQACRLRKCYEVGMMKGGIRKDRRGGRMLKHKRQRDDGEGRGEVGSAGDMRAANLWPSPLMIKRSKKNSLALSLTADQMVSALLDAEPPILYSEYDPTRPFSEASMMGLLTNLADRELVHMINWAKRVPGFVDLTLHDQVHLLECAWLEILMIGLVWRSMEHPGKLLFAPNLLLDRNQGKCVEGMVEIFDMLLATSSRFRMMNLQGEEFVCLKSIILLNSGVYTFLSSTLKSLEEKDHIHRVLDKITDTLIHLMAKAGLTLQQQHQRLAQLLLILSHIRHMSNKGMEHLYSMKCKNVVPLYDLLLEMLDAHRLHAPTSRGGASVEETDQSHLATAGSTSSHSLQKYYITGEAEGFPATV
UniProt Q91V09: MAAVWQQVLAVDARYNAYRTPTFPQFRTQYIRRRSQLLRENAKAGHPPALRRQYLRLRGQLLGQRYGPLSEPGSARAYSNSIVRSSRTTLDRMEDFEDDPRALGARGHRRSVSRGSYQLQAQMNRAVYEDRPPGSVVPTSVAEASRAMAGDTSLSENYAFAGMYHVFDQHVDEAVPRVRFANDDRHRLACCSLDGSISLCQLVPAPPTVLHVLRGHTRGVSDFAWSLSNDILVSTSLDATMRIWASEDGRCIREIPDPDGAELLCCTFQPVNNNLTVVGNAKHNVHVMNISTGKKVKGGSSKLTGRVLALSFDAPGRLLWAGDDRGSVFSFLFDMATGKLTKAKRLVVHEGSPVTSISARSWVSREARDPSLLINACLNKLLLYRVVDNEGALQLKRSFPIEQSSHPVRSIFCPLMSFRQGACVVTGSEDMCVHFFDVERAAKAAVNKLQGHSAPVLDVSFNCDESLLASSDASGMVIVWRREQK

What was measured:
hHDAC3-FLAG (human) [1] = target: hHDAC3-FLAG (human) (UniProt O15379); assay: co-immunoprecipitation from co-transfected HEK 293 cells: anti-FLAG IP, anti-Myc blot
mHDAC7-FLAG (mouse) [2] = target: mHDAC7-FLAG (mouse) (UniProt Q8C2B3); assay: as above
hHDAC1-FLAG (human) [3] = target: hHDAC1-FLAG (human) (UniProt Q13547); assay: as above
hHDAC3-FLAG (human) [4] = target: hHDAC3-FLAG (human) (UniProt O15379); assay: co-immunoprecipitation, HEK 293 cells
mHDAC7-FLAG (mouse) [5] = target: mHDAC7-FLAG (mouse) (UniProt Q8C2B3); assay: co-immunoprecipitation, HEK 293 cells
hHDAC1-FLAG (human) [6] = target: hHDAC1-FLAG (human) (UniProt Q13547); assay: co-immunoprecipitation, HEK 293 cells
[7] = target: Myc PHIP1 (Pleckstrin homology domain interacting protein1) fusion protein (UniProt Q8VDD9); assay: co-immunoprecipitation from co-transfected HEK 293 cells: anti-FLAG IP, anti-Myc blot
[8] = target: Myc-tagged estrogen receptor beta (UniProt O08537); assay: co-immunoprecipitation from co-transfected HEK 293 cells with or without estradiol: anti-FLAG IP, anti-Myc blot
[9] = target: PH-interacting protein (human) (UniProt Q8WWQ0); assay: anti-FLAG immunoprecipitation of FLAG-WDR13 from HeLa cells, LC-MS/MS of the eluate
[10] = target: T1, Histone deacetylase 7a (HDA7a) (human) (UniProt Q8WUI4); assay: as above
T1 sequence (looked up): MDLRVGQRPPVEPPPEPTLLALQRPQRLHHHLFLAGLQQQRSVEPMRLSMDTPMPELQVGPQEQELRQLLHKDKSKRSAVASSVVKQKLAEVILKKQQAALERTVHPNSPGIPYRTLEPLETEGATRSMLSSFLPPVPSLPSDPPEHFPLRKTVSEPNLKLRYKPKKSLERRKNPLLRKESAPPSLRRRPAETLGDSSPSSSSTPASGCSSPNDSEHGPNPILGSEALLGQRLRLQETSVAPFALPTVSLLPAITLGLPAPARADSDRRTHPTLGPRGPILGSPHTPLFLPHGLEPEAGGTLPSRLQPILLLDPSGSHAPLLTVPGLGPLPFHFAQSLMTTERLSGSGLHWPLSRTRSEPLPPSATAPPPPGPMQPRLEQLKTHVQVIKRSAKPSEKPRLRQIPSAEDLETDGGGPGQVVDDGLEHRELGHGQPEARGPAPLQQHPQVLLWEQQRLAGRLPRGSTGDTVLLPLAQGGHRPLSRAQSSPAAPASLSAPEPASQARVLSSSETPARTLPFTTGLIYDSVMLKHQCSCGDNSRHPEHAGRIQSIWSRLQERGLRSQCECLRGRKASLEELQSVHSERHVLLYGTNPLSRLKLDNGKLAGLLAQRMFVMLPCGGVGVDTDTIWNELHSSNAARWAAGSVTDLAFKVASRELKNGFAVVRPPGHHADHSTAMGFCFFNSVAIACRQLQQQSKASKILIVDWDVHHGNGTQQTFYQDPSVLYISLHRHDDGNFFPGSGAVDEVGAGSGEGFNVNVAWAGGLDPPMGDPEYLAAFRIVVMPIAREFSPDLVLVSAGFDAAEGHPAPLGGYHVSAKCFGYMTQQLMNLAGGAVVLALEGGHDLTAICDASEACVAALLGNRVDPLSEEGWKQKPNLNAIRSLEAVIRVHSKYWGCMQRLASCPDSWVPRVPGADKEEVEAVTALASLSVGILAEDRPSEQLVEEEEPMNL

[11] = target: PH-interacting protein (human) (UniProt Q8WWQ0); assay: anti-FLAG immunoprecipitation of FLAG-WDR13 from HeLa cells, LC-MS/MS
[12] = target: T1, Histone deacetylase 7a (HDA7a) (human); assay: as above
GFP-ERα (human) [13] = target: GFP-ERα (human) (UniProt P03372); assay: co-immunoprecipitation, HEK 293 cells, with or without estradiol
[14] = target: Myc-tagged estrogen receptor beta (UniProt O08537); assay: as above
GFP-ERα (human) [15] = target: GFP-ERα (human) (UniProt P03372); assay: co-immunoprecipitation, HEK 293 cells
[16] = target: Myc-tagged estrogen receptor beta (UniProt O08537); assay: co-immunoprecipitation, HEK 293 cells
[17] = target: Myc PHIP1 (Pleckstrin homology domain interacting protein1) fusion protein (UniProt Q8VDD9); assay: co-immunoprecipitation, HEK 293 cells
GFP-ERα (human) [18] = target: GFP-ERα (human) (UniProt P03372); assay: co-immunoprecipitation from co-transfected HEK 293 cells with or without estradiol: anti-FLAG IP, anti-GFP blot

Measured: binding

Myc WDR13 fusion protein (from UniProt Q91V09 1-485)
binds: hHDAC3-FLAG (human) [1] | mHDAC7-FLAG (mouse) [2] | hHDAC1-FLAG (human) [3] | hHDAC3-FLAG (human) [4] | mHDAC7-FLAG (mouse) [5] | hHDAC1-FLAG (human) [6]

FLAG-WDR13 fusion protein (from UniProt Q91V09 1-485)
binds: [7] | [8] | [9] | [10] | [11] | [12] | GFP-ERα (human) [13] | [14] | GFP-ERα (human) [15] | [16] | [17] | GFP-ERα (human) [18]
